Data taken from the supplement of paper PMC5949888.
Most values lie at the floor of the assay. Slopes are relative: functional sequences can read slightly below zero.

Each substance was assayed on Saccharomyces cerevisiae PS128 hsf1 delta, HSF1(1-493) fusion (assay: growth estimate (transactivation domain function in HSF1 fusion, heat-shock survival) (a.u. (slope of normalised read count over time)); higher = stronger growth at 37°C, i.e. more transactivation activity). Conditions: library: random library.

Substance	growth estimate
ELFNIGRVRHSYHVCDAALW	< -0.25
LEMGMVRAQTCIRGVP	< -0.25
ATPRCTSVVIQTHAYPVHHF	< -0.25
CRPVGCIMKRGLRKQATPGQ	< -0.25
PGPWVR	< -0.25
YSYGQIHDERGARLRE	< -0.25
HRPEESGHSDPCLKFVPYVQ	< -0.25
ESAHGQGEIPGFRNDRVSRV	< -0.25
AALVQGQPGTVIGGMFGGFL	< -0.25
TCITGPVGGSQRHRLNG	< -0.25
ARMVAVMERA	< -0.25
TLNKEHVAPHSLLRDNSGSG	< -0.25
VDIPAGYVISGIWSDCCRLN	< -0.25
GPTMRFSLLPLRPRFKH	< -0.25
DETADSGRRCGPLVRSISRH	< -0.25
PGGANGAREYASLSLQGPVS	< -0.25
VGTFRYACRGTYGWLSVRAY	< -0.25
SCGGHWITETFRFRRTCSGG	< -0.25
IVGFGLSYARVYIGRQLTP	< -0.25
PYPVASRPKRLSVTAAPGSA	< -0.25
FLPPYLDGAFLPSLSGLLIC	< -0.25
RSW	< -0.25
RVSDLLGRFAHRESRGHLGI	< -0.25
THRWSEARLVSDSNVRLARL	< -0.25
HTVFAGEDRGTVVDRETLYR	< -0.25

Substance	growth estimate
RPYRGRRGSAHIFSVQETS	-0.122
SSWISSARLAVV	< -0.25
ILTIGGEWT	< -0.25
LWGGRQLRYRAPILFA	< -0.25
TSGKP	< -0.25
LSLVSMNFSDLILRLWVVRH	< -0.25
FQCASNVSFKPGSLHGGLNS	< -0.25
HLMRWRSNGVYFALWSRVGH	< -0.25
LVVTKISRRATK	< -0.25
RGNGLFWFVLPIL	-0.24
TSEQVN	-0.187
AVTKYRAGPGLRARQGGNYN	< -0.25
VTWEEYPIAVN	< -0.25
QTCIVFVLALSTHTPPPRRG	< -0.25
RHSDGGSAS	< -0.25
GAKITGL	< -0.25
RLAVVHTEYQRTGVLLTL	< -0.25
TGISNPGWWHATAVSLHTTF	< -0.25
TFHYDLSSDVKSADAWWV	0.661
VLSGEDVVHRASKRLDADSR	< -0.25
DQLGNSG	< -0.25
NVDRVV	< -0.25
RYLDLLYLKGDSDIRARPSR	< -0.25
ASGGNRQISSTQLEMHRRTG	< -0.25
PFI	< -0.25

Single entries from the list:
DQLGNSG – growth estimate: < -0.25
SSWISSARLAVV – growth estimate: < -0.25
AVTKYRAGPGLRARQGGNYN – growth estimate: < -0.25
ASGGNRQISSTQLEMHRRTG – growth estimate: < -0.25
TSEQVN – growth estimate: -0.187
FQCASNVSFKPGSLHGGLNS – growth estimate: < -0.25

Next results.

Substance	growth estimate
SVG	< -0.25
RTAVRVGGAALRLFFNLTQG	< -0.25
RGRGRFQLLSLFMFLVLCYA	< -0.25
GYPAITRSSSRRS	< -0.25
VRIKSSARRIEAGAGGTNAP	-0.231
GRRIK	< -0.25
CRSPPASGPT	< -0.25
VSYRCSTQSEALSSMLTGRA	< -0.25
FSPLPLDMPLCGTSETSQLG	< -0.25
LLRAHHRLYWGDPKSLLTFP	< -0.25
RKCDHKSGHRMSIAWNRRRL	< -0.25
LRELKF	< -0.25
SILPTSTA	< -0.25
GLPPA	< -0.25
ASIKSHVGARRFCYSLRE	< -0.25
LSMPSAVPKQGTVHRVHVVA	< -0.25
LYTVLALDARAGSR	< -0.25
YFVSRIHVC	< -0.25
LPTFRDCTDGQKGSKDRESR	< -0.25
CYGYDGSGHEPKWPSETGLS	< -0.25
TQCCITS	< -0.25
CRNTALSSAKTFHPGESLGL	< -0.25
ILRGKRCGWYKGDGAHSTPR	< -0.25
YNSLAIALVYFTWWK	< -0.25
TMVSV	< -0.25

Substance	growth estimate
CTNKHRRS	< -0.25
RKFAYYTRRSRQHQFLGLMG	< -0.25
LFEQTSSHLIHSTSKCGE	< -0.25
LCEKRRLPVEWAPQSNPRST	< -0.25
AIRLGNSCGNGL	< -0.25
NEFWRPSPGIWGKELSSTST	< -0.25
FLS	< -0.25
IGYMTGIVYYVIDPDHCRGS	< -0.25
HQS	< -0.25
GGPI	< -0.25
NCHHVVLQSAWVGPGIGVNR	< -0.25
SWCTGDRHGRPR	< -0.25
TNCLHPKPRSRKSSTRYGRQ	< -0.25
SVVWI	< -0.25
GENR	< -0.25
VPLFASE	< -0.25
RLATAREH	< -0.25
LKRLTLRRRAALWMHESGHV	< -0.25
TVCPEVGQGREVGLATIGHL	< -0.25
SLVGMARLQGPRPACHYCMP	< -0.25
VRMMLFSMPRNRGSTRKFLD	< -0.25
SYHQTRKGSG	< -0.25
FTG	< -0.25
YRKRGILRVEDC	< -0.25
ARINRPARGSIALPGLC	< -0.25

Substance	growth estimate
PTICESSRCGCNLVRIGFLE	< -0.25
EVASLD	< -0.25
LREN	< -0.25
SVINLGSRKGRNHNVYTGHC	< -0.25
FGLNHPISLRPKSS	< -0.25
PEWYLSHGGLVRGGP	< -0.25
RLVSYPELGPARVW	< -0.25
DGPASISPGVKLARGYKYSE	< -0.25
TVGYQKTDPIVTF	< -0.25
DGTGGSNPGLTLYKKVYTST	< -0.25
KTVGASLVNRLF	< -0.25
RMNTRFIP	-0.203
VRTHN	-0.248
NRPG	< -0.25
LLGTAFEAV	< -0.25
LVCTSTLDHGGQFEPHVVLS	< -0.25
QEVFISRVSKA	< -0.25
VSTIDPMRPQPGFSGARRVV	< -0.25
PSVEKSWSTCVHGSPPRLSD	< -0.25
GHPAHETDW	< -0.25
WGIPDDTGFSTLSRRLPCYP	< -0.25
DVFPLGGRDNRSSLASR	< -0.25
HTPFGGRCRGVSNRRVLEYQ	< -0.25
SFFSSCIFRAWFGYVATILQ	< -0.25
DFVHGLPVPRILSSLANCSA	< -0.25

Not a retest: an excerpt of the list.
Substance	growth estimate
DGPASISPGVKLARGYKYSE	< -0.25
TVGYQKTDPIVTF	< -0.25
DGTGGSNPGLTLYKKVYTST	< -0.25
KTVGASLVNRLF	< -0.25
RMNTRFIP	-0.203
VRTHN	-0.248

Remaining list, next part.

Substance	growth estimate
GRCKAQ	-0.243
TGATSKRAWCLNLRDARVHS	< -0.25
LRSRGSSFTVS	< -0.25
KKGGAPSSCVDGEIGHPAAP	< -0.25
RTTYALQWTEPALVRAVGEP	< -0.25
FKCRIEYKRSRFCVKV	< -0.25
LDWWSRKRTLTCHFTMTGQL	-0.0153
IININGVSGTRGRGLHSLRW	< -0.25
VNALNGTPKEGEKRASLRGR	< -0.25
VAHHQGCVTQHNISQKLGKG	< -0.25
SCVVGSILRQWSKRVPGLPG	< -0.25
ATRQAVDEFPPGIV	< -0.25
SAVNGGSRTAANHKGH	< -0.25
SCAYDCSSSYLPRELP	< -0.25
YSSMKEFDCSTNARASSLWL	< -0.25
RGEIVPNIAA	< -0.25
MEGCYIFGCDRLGGPAKPWW	-0.224
TVPWKPAKHYGTADSLHEAS	-0.25
FEHASDKKT	< -0.25
RPRSGPSRDRARWKS	< -0.25
ADANHIGTWGEVNLMINIPR	< -0.25
TSRWLVT	< -0.25
TVLSICRP	< -0.25
RLIGV	< -0.25
SEPLGCPPVNTHL	< -0.25

Substance	growth estimate
IASRFSRRGIGWLH	< -0.25
YYATEW	< -0.25
QMDDGSACDG	< -0.25
CVQGCPPLPGSWAAI	< -0.25
ISGNSDSFL	< -0.25
KWVGLSL	< -0.25
IKKLMRTEVMLIEDSYTTWF	< -0.25
KVIKLTLNPGVVNMAFCHLM	< -0.25
ARGAIKGNKLILVTRGGGFR	< -0.25
NTTQDQGSARV	< -0.25
SSLRLGGANPGAGQSYSRCR	< -0.25
RQRR	< -0.25
VGLPCKRGVG	< -0.25
RTCI	< -0.25
WCHSCTKINYEYPAYCGAAR	< -0.25
LGLPGTQTSTVDASDRPIGS	< -0.25
ALPSGVTAILLCSNLRSLVC	< -0.25
VYSEVLPIPAYCLSVNGYSG	< -0.25
LTSMARVRQ	< -0.25
LLLHLWRCDRREPRHPISHT	< -0.25
RQMGPQYPGGKQHHGDLPPQ	< -0.25
RETPISTVVLNYSGRFRMLE	< -0.25
AVRYIYSGAVLP	< -0.25
LGVHSQVGCERYLPGTRGLI	< -0.25
KSGGETEQCFRAPPLGHLLR	< -0.25

Substance	growth estimate
LERLWPGVSKDNPVWQWSIL	< -0.25
KVRGEIDFASCENNIKCGQS	< -0.25
SGNCLLERSRVRRGSMIQIV	< -0.25
RGARLLGHR	< -0.25
GLLVIRTARSKGA	< -0.25
NNSGA	< -0.25
VWICSVEHVP	< -0.25
PVSDRSARRWVRASQLATSH	< -0.25
ALRFRAPETGSALSIQTAMY	< -0.25
RTYSKHSPAKRAFRWIASPA	< -0.25
ILPLKVCRHPGGVRASKLNS	< -0.25
TEAPWLSIRFTECDSGRR	< -0.25
EGIASVGMSSP	< -0.25
LTALDCFASVIPRAA	< -0.25
GLP	< -0.25
VNVECSDLGG	< -0.25
VQFELQAHGL	< -0.25
KIVLRGGIPVSCP	< -0.25
QARFRGPIVHSSVLVRPRSN	< -0.25
TCFGFRDAPVSSDDGSVDIN	-0.216
NAFPG	< -0.25
GNLA	-0.248
AEHVGN	< -0.25
